Test results from paper PMC9279627 (Acta Pharmaceutica Sinica. B, 2021).

Amino acid sequences for entries named in this document (tags omitted).
UniProt P11712, whole entry: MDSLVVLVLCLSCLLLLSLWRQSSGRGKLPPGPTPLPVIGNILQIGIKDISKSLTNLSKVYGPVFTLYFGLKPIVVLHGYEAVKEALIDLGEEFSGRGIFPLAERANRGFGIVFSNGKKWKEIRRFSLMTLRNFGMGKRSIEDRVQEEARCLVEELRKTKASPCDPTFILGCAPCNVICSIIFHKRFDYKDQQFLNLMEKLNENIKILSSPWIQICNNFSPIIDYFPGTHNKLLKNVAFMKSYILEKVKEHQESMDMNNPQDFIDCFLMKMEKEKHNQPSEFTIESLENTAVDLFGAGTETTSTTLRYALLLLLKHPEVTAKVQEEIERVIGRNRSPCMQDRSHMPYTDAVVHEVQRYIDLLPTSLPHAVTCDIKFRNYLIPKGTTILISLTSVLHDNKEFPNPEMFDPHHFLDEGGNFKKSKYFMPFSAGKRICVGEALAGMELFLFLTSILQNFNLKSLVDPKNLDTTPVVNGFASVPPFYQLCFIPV

Target: CYP2C9 (Homo sapiens, UniProt P11712)
Type: biochemical

Concentration-dependent inhibitory effect toward CYP2C9 (0.1, 0.5, 1, 10 and 20 μmol/L, DDAM, Fig. 4B): significant inhibitory effect
Modulation of CYP2C9 activity in visual high-throughput screen (clinical drugs 10 μmol/L, DDAM 10 μmol/L, HLM, 96-well microplate): strong inhibitors
Compound: Clc1ccc(CSC(Cn2ccnc2)c2ccc(Cl)cc2Cl)cc1 (centres unmarked) [sulconazole]
